A short description of the data set: general procedure: Fmoc solid-phase peptide synthesis; pre-loaded Fmoc-Cys(Trt) Tentagel resin (RAPP Polymere); HBTU/HOBt/DIPEA; HATU/DIPEA for ligand acid. The settings on record: for isolated mass / isolated yield: whole synthesis.

For the setting “scale 0.025 mmol”, “(2R,5S,8S,11R)-8-(4-aminobutyl)-5,11-bis(carboxymethyl)-16-((4-((carboxymethyl)carbamoyl)quinolin-8-yl)amino)-2-(mercaptomethyl)-4,7,10,13,16-pentaoxo-3,6,9,12-tetraazahexadecanoic acid” registered an isolated mass of 2.4 mg and an isolated yield of 12%.
On to AlbuTag-ESV6-Peptide, for which the isolated mass turned out to be 6 mg. For the same substance, the isolated yield (scale of the general procedure 0.415 mmol) is 2%.
Turning to SH-Cys-SH-Cys-Asp-Lys-Asp-ESV6, for the setting “scale 0.04 mmol”, the isolated mass is given as 8 mg and the isolated yield was 2.4%.
Consider “(2R,5S,8S,11S)-8-(4-aminobutyl)-5,11-bis(carboxymethyl)-16-((4-((2-((S)-2-cyano-4,4-difluoropyrrolidin-1-yl)-2- oxoethyl)carbamoyl)quinolin-8-yl)amino)-2-(mercaptomethyl)-4,7,10,13,16-pentaoxo-3,6,9,12-tetraazahexadecanoic acid”, for which, under “scale 0.04 mmol”, the isolated mass came out at 1 mg and the isolated yield came out at 0.3%.
ESV6-ValCit-MMAE showed a conjugation yield (conjugation step) of 20%.

For the origin of these results see US20230147962A1 (PHILOCHEM AG, priority 2020, published 2023).
